No constants are given. Whether binding was seen depends on the method and setting. Some entries that bind do so weakly or less than the wild type.
Experiments:
[1] = biological target: MRIP^724-878 (myosin phosphatase-RhoA interacting protein, residues 724–878; CC2-CC4) (UniProt Q6WCQ1); assay: SPR; Biacore 3000, 25°C; MRIP^724-878 immobilised (1800 RU) by amine coupling on CM5, analytes CCLR (167–1 μM), CC (318–10 μM), LR (569–5 μM); reference surface G-actin; 50 mM potassium phosphate pH 7.4, 100 mM KCl; steady-state affinity fit; both purified
[2] = biological target: MRIP^724-878 (myosin phosphatase-RhoA interacting protein, residues 724–878; CC2-CC4) (UniProt Q6WCQ1); assay: AUC; sedimentation velocity of mixtures of an MRIP peptide with a MYPT1 peptide (equimolar, 14–67 μM each, with 3- and 9-fold dilutions; excess of peptide for R992D/R993D and E996K), g(s*) curves compared with the peptides alone; 50 mM potassium phosphate pH 7.4, 100 mM KCl, 1 mM DTT, 50,000 rpm, 20°C; both purified
[3] = biological target: MRIP^724-837 (myosin phosphatase-RhoA interacting protein, residues 724–837; CC2-CC3) (UniProt Q6WCQ1); assay: as above
[4] = biological target: MRIP^545-878 (myosin phosphatase-RhoA interacting protein, residues 545–878; CC1-CC4) (UniProt Q6WCQ1); assay: as above
[5] = biological target: MRIP^545-878 (myosin phosphatase-RhoA interacting protein, residues 545–878; CC1-CC4) (UniProt Q6WCQ1); assay: AUC; sedimentation velocity of each MRIP peptide alone, three-fold serial dilutions (MRIP^545-878 1.5–13.6 μM, MRIP^724-878 4.7–42.3 μM, MRIP^724-837 7.5–67.1 μM); 50 mM potassium phosphate pH 7.4, 100 mM KCl, 1 mM DTT, 50,000 rpm, 20°C; global fitting with SedAnal; constant of MRIP^724-837: dimer to monomers; both purified
[6] = biological target: MRIP^724-837 (myosin phosphatase-RhoA interacting protein, residues 724–837; CC2-CC3) (UniProt Q6WCQ1); assay: AUC; data not shown: g(s*) curve of the mixture of MRIP^724-837 and LR; both purified

Protein sequences, listed by entry. Tags and fused reporters are not part of them. Residues count along the entry.
MRIP^545-878 (myosin phosphatase-RhoA interacting protein, residues 545–878; CC1-CC4) (Q6WCQ1, residues 545-878): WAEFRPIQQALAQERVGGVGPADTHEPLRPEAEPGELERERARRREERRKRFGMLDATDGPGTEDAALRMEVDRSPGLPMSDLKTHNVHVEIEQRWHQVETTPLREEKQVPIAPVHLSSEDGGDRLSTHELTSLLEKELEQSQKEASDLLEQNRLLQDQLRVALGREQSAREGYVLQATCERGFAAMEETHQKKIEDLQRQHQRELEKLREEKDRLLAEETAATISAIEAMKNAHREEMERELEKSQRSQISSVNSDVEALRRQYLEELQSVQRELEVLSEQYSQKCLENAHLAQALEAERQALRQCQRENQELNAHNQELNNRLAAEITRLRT
MRIP^724-878 (myosin phosphatase-RhoA interacting protein, residues 724–878; CC2-CC4) (Q6WCQ1, residues 724-878): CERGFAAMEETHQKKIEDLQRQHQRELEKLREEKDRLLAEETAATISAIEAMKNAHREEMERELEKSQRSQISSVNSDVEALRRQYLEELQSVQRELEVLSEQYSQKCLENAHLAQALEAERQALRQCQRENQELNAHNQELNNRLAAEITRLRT
MRIP^724-837 (myosin phosphatase-RhoA interacting protein, residues 724–837; CC2-CC3) (Q6WCQ1, residues 724-837): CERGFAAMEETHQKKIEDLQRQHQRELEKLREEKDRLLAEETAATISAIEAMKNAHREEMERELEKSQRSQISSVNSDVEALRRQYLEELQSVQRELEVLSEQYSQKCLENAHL

Molecule	binding [2]	also measured
CC, putative coiled coil domain of MYPT1 (residues 924–990) (from UniProt O14974 924-990) (domain or fragment)	no binding (tested: 50 μM each)	binding [1]: no binding (tested: 318–10 μM)
CCLR, MYPT1 peptide (residues 924–1030) containing a putative coiled coil domain (CC) and the leucine repeat region (LR) (from UniProt O14974 924-1030) (domain or fragment)	binds	binding [3]: binds; binding [4]: binds
LR mutant E996K (from UniProt O14974 991-1030) (peptide)	binds	
LR mutant EtriA (glutamic acid residues 998–1000 replaced by alanine) (from UniProt O14974 991-1030) (peptide)	binds	
LR mutant EtriQ (glutamic acid residues 998–1000 replaced by glutamine) (from UniProt O14974 991-1030) (peptide)	binds	
LR mutant R992D/R993D (from UniProt O14974 991-1030) (peptide)	binds	
LR^997-1030 (from UniProt O14974 997-1030) (peptide)	binds	
LR^1001-1030 (from UniProt O14974 1001-1030) (peptide)	binds	
LR^1007-1028 (from UniProt O14974 1007-1028) (peptide)	binds	
MRIP^545-878 (myosin phosphatase-RhoA interacting protein, residues 545–878; CC1-CC4) (from UniProt Q6WCQ1 545-878) (domain or fragment)		binding [5]: no binding (tested: 1.5–13.6 μM)
ERRISEMEEELKMLPDLKADNQRLKDENGALIRVISKLSK (peptide, UniProt O14974 991-1030, looked up, no result of its own is told for it; also called WT-LR; source: E. coli BL21 (DE3), purified (chitin beads, C8 reversed-phase HPLC)) [LR, leucine repeat region of MYPT1 (residues 991–1030)]	binds	binding [6]: binds
